Measurements from patent US20220372160A1.
No constants are given. Whether binding was seen depends on the method and setting. Some results given as binding are weak or reduced against the parent protein; the word gives no strength.

Assays:
[1] = target: recombinant cynomolgus monkey CD39 (cynomolgus monkey); assay: BLI
[2] = target: recombinant cynomolgus monkey CD39 (cynomolgus monkey); assay: BLI, AHC biosensor

B1: anti-CD39 antibody clone 22 (antibody, human IgG4 S228P, kappa, V domains shown)
VH: QVQLVQSGAEVKKPGSSVKVSCKASGGTFSSEGISWVRQAPGQGLEWMGSILPIFGTANYAQKFQGRVTITADESTSTAYMELSSLRSEDTAVYYCAREAGYYRYRYFDLWGRGTLVTVSS
VL: EIVMTQSPATLSVSPGERATLSCRASQSVSSNLAWYQQKPGQAPRLLIYGASTRATGIPARFSGSGSGTEFTLTISSLQSEDFAVYYCQQHALWPLTFGGGTKVEIKR
In the case of B1, the binding [1] is reported as “binds” and the binding [2] is reported as “binds”.
